Assay results reported in US20150362492A1.
Results are given in words; binding and its absence hold for the method and conditions named. Some entries that bind do so weakly or less than the wild type.

What was measured:
[1] = target: T1, purified human Factor XIIa (activated Factor XII), biotinylated (human) (UniProt P00748); assay: functional ELISA based on inhibition of FXII: biotinylated Factor XIIa on avidin plate, plasma, anti-C1-INH detection, read against a C1-INH standard curve
T1 sequence (chain, biotinylated with Sulfo-NHS-LC-Biotin (sites not stated)): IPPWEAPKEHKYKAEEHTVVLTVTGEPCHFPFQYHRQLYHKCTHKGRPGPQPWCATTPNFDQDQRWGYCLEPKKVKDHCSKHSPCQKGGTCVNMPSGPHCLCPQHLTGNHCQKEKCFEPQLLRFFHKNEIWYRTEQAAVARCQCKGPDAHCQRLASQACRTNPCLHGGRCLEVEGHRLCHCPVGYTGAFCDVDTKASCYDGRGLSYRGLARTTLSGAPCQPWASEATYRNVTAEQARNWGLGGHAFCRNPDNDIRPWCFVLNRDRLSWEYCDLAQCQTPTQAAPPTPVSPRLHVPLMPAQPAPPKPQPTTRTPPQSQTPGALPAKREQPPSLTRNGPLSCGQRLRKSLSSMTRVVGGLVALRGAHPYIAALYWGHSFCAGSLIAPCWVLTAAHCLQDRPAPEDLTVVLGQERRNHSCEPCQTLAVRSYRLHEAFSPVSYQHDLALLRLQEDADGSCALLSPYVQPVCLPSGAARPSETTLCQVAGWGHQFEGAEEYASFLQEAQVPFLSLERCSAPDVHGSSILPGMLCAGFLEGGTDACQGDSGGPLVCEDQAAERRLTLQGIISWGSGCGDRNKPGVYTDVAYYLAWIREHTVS

[2] = target: T2, activated C1s (commercial Quidel functional C1-INH ELISA kit) (UniProt P09871); assay: commercial functional complex ELISA (Quidel) based on inhibition of activated C1s by plasma C1-INH
T2 sequence (looked up): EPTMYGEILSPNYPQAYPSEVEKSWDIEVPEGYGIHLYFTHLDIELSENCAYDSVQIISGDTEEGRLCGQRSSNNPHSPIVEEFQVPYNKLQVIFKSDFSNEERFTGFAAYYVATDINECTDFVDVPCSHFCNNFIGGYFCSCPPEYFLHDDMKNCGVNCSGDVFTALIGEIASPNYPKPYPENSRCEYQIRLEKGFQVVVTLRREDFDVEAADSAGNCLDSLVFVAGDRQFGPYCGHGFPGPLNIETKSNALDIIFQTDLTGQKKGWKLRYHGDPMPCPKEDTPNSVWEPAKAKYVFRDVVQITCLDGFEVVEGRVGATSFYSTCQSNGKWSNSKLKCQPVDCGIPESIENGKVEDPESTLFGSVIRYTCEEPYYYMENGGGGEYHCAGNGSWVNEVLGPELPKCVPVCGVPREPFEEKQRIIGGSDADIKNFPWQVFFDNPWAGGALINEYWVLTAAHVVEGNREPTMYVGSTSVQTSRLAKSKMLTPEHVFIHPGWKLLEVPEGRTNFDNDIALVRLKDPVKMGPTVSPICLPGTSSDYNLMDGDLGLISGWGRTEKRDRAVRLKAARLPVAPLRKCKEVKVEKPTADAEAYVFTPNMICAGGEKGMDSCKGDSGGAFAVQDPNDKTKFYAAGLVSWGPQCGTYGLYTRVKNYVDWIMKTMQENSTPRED

[3] = target: T1, purified human Factor XIIa (activated Factor XII), biotinylated (human); assay: complex ELISA: biotinylated Factor XIIa captured on avidin plate, incubated with plasma, bound C1-INH detected with polyclonal anti-C1-INH and alkaline phosphatase secondary antibody
[4] = target: T1, purified human Factor XIIa (activated Factor XII), biotinylated (human); assay: complex ELISA, biotinylated enzyme on avidin plate, anti-C1-INH detection
[5] = target: T1, purified human Factor XIIa (activated Factor XII), biotinylated (human); assay: complex ELISA, biotinylated Factor XIIa on avidin plate, plasma samples, anti-C1-INH detection

binding [1]: binds
binding [2]: binds
binding [3]: binds
binding [4]: binds
binding [5]: binds
B1: plasma protease C1 inhibitor (C1-INH) in plasma of healthy (normal) controls (protein)
chain: NPNATSSSSQDPESLQDRGEGKVATTVISKMLFVEPILEVSSLPTTNSTTNSATKITANTTDEPTTQPTTEPTTQPTIQPTQPTTQLPTDSPTQPTTGSFCPGPVTLCSDLESHSTEAVLGDALVDFSLKLYHAFSAMKKVETNMAFSPFSIASLLTQVLLGAGENTKTNLESILSYPKDFTCVHQALKGFTTKGVTSVSQIFHSPDLAIRDTFVNASRTLYSSSPRVLSNNSDANLELINTWVAKNTNNKISRLLDSLPSDTRLVLLNAIYLSAKWKTTFDPKKTRMEPFHFKNSVIKVPMMNSKKYPVAHFIDQTLKAKVGQLQLSHNLSLVILVPQNLKHRLEDMEQALSPSVFKAIMEKLEMSKFQPTLLTLPRIKVTTSQDMLSIMEKLEFFDFSYDLNLCGLTEDPDLQVSAMQHQTVLELTETGVEAAAASAISVARTLLVFEVQQPFLFVLWDQQHKFPVFMGRVYDPRA
